Screen size: about 300,000 compounds; about 3,700 (1.2%) were called active. Inconclusive means that the source gave no clear call. Such entries were picked first, then a sample of the others. Calls follow the shape of the full dose curve; tested in HEK293 cells. Where the call is inconclusive, the potency comes from a doubtful curve fit.
Assay: qHTS for Inhibitors of binding or entry into cells for Lassa Virus; also: nearly all actives have a fitted effect of over 50% in size
Settings: Lassa virus pseudotype entry inhibition, cell reporter; series mostly up to 37.9 µM
Potency is read from the fitted curve at half-maximal effect.

Compound | Potency
COc1cc2c(c(OC)c1OC)C1(c3ccccc3)CCCCCC1[C@@H]2NC(=O)C(F)(F)F (some centres undefined) | inconclusive: 0.0015 µM [inhibitor, full curve, poor fit]
Cc1c(CNCCCc2ccccc2)c(C(=O)O)c(C)n1Cc1cccc(Cl)c1 | inactive
CN1CCN(c2ccc(S(=O)(=O)C(F)(F)F)cc2[N+](=O)[O-])CC1 | inactive
COc1ccc(-c2nn(C)c3sc(C(=O)N4CCN(c5cccc(Cl)c5)CC4)cc23)cc1OC | inconclusive: 35.5 µM [inhibitor, single point]
CCOc1c(OC(C)=O)ccc(/C=C/c2ccc3cccc(OC(C)=O)c3n2)c1[N+](=O)[O-] | inconclusive: 0.58 µM [inhibitor, full curve, poor fit]
O=C(O)c1cccc2c1Cc1cc([N+](=O)[O-])ccc1-2 | inactive
CNCCOCC(O)CSc1ccccc1 (centres undefined) | inactive
Cn1c(SCC(=O)NCc2cccs2)nnc1-c1ccc(O)cc1 | inconclusive: 3.98 µM [inhibitor, partial curve, poor fit]
Cc1ccccc1S(=O)(=O)Cc1ccc(C(=O)NCc2ccco2)o1 | inconclusive: 8.91 µM [inhibitor, partial curve, poor fit]
O=C1NCC(COc2ccc(Cl)cc2)O1 (centres undefined) | inactive
O=C(Nc1ccc2c(c1)Cc1ccccc1-2)c1ccccc1F | inactive
COC(=O)c1ccccc1NC(=O)NCC1CCCO1 (centres undefined) | inconclusive: 25.9 µM [activator, partial curve, poor fit]
CCn1cc(C(=O)O)c(=O)c2cc(Br)ccc21 | inactive
Cc1ccc(NC(=O)C(c2ccc(Cl)cc2Cl)N2CCCC2)cc1 (centres undefined) | inactive
Cc1ccc(C)c(OCC(=O)N2CCCN(C)CC2)c1 | inactive
O=C(Oc1c(CN2CCOCC2)cc(Cl)c2cccnc12)c1cccs1 | inconclusive: 17.8 µM [inhibitor, single point]
Nc1ccc2c(c1)nnn2-c1ccccc1 | inconclusive: 8.91 µM [inhibitor, partial curve, poor fit]
CCCC12CN3CC(C)(CN(C1)C3c1ccc([N+](=O)[O-])o1)C2=O (centres undefined) | inconclusive: 0.501 µM [activator, full curve, poor fit]
COc1ccc2nc(C)cc(SCC(=O)NNC(=O)COc3cccc4ccccc34)c2c1 | inconclusive: 35.5 µM [inhibitor, single point]
NS(=O)(=O)c1cnccc1Nc1ccc(Cl)c(Cl)c1 | inactive
Clc1cccc(Nc2c3c(nc4ncnn24)CCC3)c1 | inactive
Cc1ccc(-c2csc(NC(=O)c3cccc([N+](=O)[O-])c3)n2)cc1 | inconclusive: 35.5 µM [inhibitor, single point]
O=C(/C=C/c1ccccc1Cl)N(Cc1ccc(Cl)cc1)C1CCS(=O)(=O)C1 (centres undefined) | inconclusive: 23.1 µM [inhibitor, single point]
Cc1cc(C)n(CC(O)Cn2c3ccccc3c3ccccc32)c(=O)n1 (centres undefined) | inactive
Cc1nnc(-c2cccc(Br)c2)c2cn(-c3ccc(Br)cc3)nc12 | inconclusive: 35.5 µM [inhibitor, single point]

Exported comma-delimited: part of the list above
Compound,Potency
Cc1ccc(NC(=O)C(c2ccc(Cl)cc2Cl)N2CCCC2)cc1 (centres undefined),inactive
Cc1ccc(C)c(OCC(=O)N2CCCN(C)CC2)c1,inactive

Next structures:

Compound | Potency
CC(=O)Nc1nnc(SCC(=O)Nc2ccc3c(c2)OCCO3)s1 | inconclusive: 3.55 µM [activator, single point]
Cc1cc(C)cc(Nc2nc3ccc(C)cc3n3cnnc23)c1 | inconclusive: 12.6 µM [inhibitor, single point]
CN1CCN(C2Cc3ccccc3Sc3cc(C(F)(F)F)ccc32)CC1 (centres undefined) | inconclusive: 35.5 µM [inhibitor, single point]
c1ccc2[nH]c(-c3ccc4c(c3)OCO4)nc2c1 | inconclusive: 5.01 µM [inhibitor, full curve, poor fit]
c1ccc(Cn2nnc3c(NCc4ccc5c(c4)OCO5)nc(C4CC4)nc32)cc1 | inactive
Cc1ccc(C(=O)N2CCN(c3ncccn3)CC2)c(C)c1 | inconclusive: 15.8 µM [activator, partial curve, poor fit]
C=C(C)CSC1=C(C#N)C(c2ccccc2)CC(=O)N1 (centres undefined) | inconclusive: 29.1 µM [inhibitor, single point]
CCOC(=O)C1=C(C)C(c2cccc(Oc3ccccc3)c2)NC(=S)N1 (centres undefined) | active: 8.91 µM
CCOc1ccc(S(=O)(=O)NCC(c2cccs2)S(=O)(=O)c2ccc(C)cc2)cc1 (centres undefined) | inconclusive: 11.2 µM [inhibitor, partial curve]
CN(C1=C(NC(=O)c2ccc(Cl)cc2)C(=O)c2ccccc2C1=O)c1ccccc1 | inconclusive: 11.2 µM [inhibitor, partial curve, poor fit]
Cc1ccc(C)c(N(C)S(=O)(=O)c2ccc3[nH]cc(C(=O)NC4CCCC4)c(=O)c3c2)c1 | inactive
O=S1(=O)CC(N2CCC(c3ccccc3)CC2)CN1Cc1cn(Cc2ccc(C(F)(F)F)cc2)nn1 (centres undefined) | inconclusive: 7.05 µM [activator, single point]
CN(CC(=O)Nc1cccc(F)c1)C(=O)c1cc([N+](=O)[O-])ccc1N1CCCCC1 | inactive
O=C(COC(=O)c1cccc2c1C(=O)c1ccccc1C2=O)NC1CCCCC1 | inconclusive: 35.5 µM [inhibitor, single point]
O=C(Nc1cccc(Cl)c1)c1cnccn1 | inactive
Cc1ccc(CNC(=O)COc2cccc3c2OC(C)(C)C3)cc1 | inactive
COC(=O)CC1Oc2ccc(Cl)cc2-n2cc(-c3ccc(F)cc3)nc21 (centres undefined) | inactive
O=[N+]([O-])c1ccc(N2CCCCC2)c(-c2nn[nH]n2)c1 | inactive
COC(=O)Cn1cc([N+](=O)[O-])nc1C | inactive
CC(=O)N1CCc2cc(S(=O)(=O)N3CCN(c4ccc(C)cc4)C(C)C3)ccc21 (centres undefined) | inactive
O=c1[nH]c2cc3ccccc3cc2nc1C(F)(F)F | inconclusive: 2.82 µM [inhibitor, partial curve, poor fit]
CCCCN1CN(Cc2ccccc2)CNC1=S | inactive
CCC(=O)Nc1cccc(C(=O)/C=C/c2cc(Br)ccc2OC)c1 | active: 11.2 µM
Cc1ccc(OCc2cc(=O)n3cc(C)sc3n2)c(C)c1 | inactive

Reference: PubChem BioAssay AID540256 (National Center for Advancing Translational Sciences (NCATS), 2011)
